Some of the results follow.
Assays:
Assay in all cases: glycan array binding signal (z-score within array); higher = stronger binding
Conditions in all cases: glycan notation: IUPAC condensed, linker removed
[1] = target: Neu5Ac(a2-3)Gal(b1-4)GlcNAc(b1-6)GalNAc
Outline: (§1)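 Glycan array data were curated from 3228 arrays in the Consortium for Functional Glycomics database and kept only where the protein sequence was available. Glycan names were converted to IUPAC-condensed notation, and columns mapping to the same glycan were averaged. The binding signal is a within-array Z-score, averaged across arrays of the same protein sequence at different concentrations or buffers and across linkers. Negative Z-scores can be read as non-binding.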

[2] = target: Neu5Ac(a2-3)Gal(b1-4)GlcNAc(b1-6)[Gal(b1-3)]GalNAc
Outline: as §1

[3] = target: Neu5Ac(a2-3)Gal(b1-4)GlcNAc(b1-6)[Neu5Ac(a2-3)Gal(b1-3)]GalNAc
Outline: as §1

[4] = target: Neu5Ac(a2-3)Gal(b1-4)GlcNAc6S
Outline: as §1

[5] = target: Neu5Ac(a2-3)Gal(b1-4)[Fuc(a1-3)]GlcNAc
Outline: as §1

[6] = target: Neu5Ac(a2-3)Gal(b1-4)[Fuc(a1-3)]GlcNAc(b1-2)Man
Outline: as §1

[7] = target: Neu5Ac(a2-3)Gal(b1-4)[Fuc(a1-3)]GlcNAc(b1-3)Gal
Outline: as §1

[8] = target: Neu5Ac(a2-3)Gal(b1-4)[Fuc(a1-3)]GlcNAc(b1-3)Gal(b1-4)GlcNAc
Outline: as §1

[9] = target: Neu5Ac(a2-3)Gal(b1-4)[Fuc(a1-3)]GlcNAc(b1-3)Gal(b1-4)[Fuc(a1-3)]GlcNAc(b1-3)Gal(b1-4)[Fuc(a1-3)]GlcNAc
Outline: as §1

[10] = target: Neu5Ac(a2-3)Gal(b1-4)[Fuc(a1-3)]GlcNAc(b1-3)GalNAc
Outline: as §1

[11] = target: Neu5Ac(a2-3)Gal(b1-4)[Fuc(a1-3)]GlcNAc(b1-6)[Gal(b1-3)]GalNAc
Outline: as §1

[12] = target: Neu5Ac(a2-3)Gal(b1-4)[Fuc(a1-3)]GlcNAc(b1-6)[Neu5Ac(a2-3)Gal(b1-3)]GalNAc
Outline: as §1

[13] = target: Neu5Ac(a2-3)Gal(b1-4)[Fuc(a1-3)]GlcNAc6S
Outline: as §1

[14] = target: Neu5Ac(a2-3)Gal6S(b1-4)GlcNAc
Outline: as §1

[15] = target: Neu5Ac(a2-3)Gal6S(b1-4)[Fuc(a1-3)]GlcNAc
Outline: as §1

Neu5Ac(a2-3)GalNAc = target: Neu5Ac(a2-3)GalNAc
Outline: as §1

[16] = target: Neu5Ac(a2-3)GalNAc(b1-4)GlcNAc
Outline: as §1

[17] = target: Neu5Ac(a2-3)[GalNAc(b1-4)]Gal(b1-4)Glc
Outline: as §1

[18] = target: Neu5Ac(a2-3)[GalNAc(b1-4)]Gal(b1-4)GlcNAc
Outline: as §1

[19] = target: Neu5Ac(a2-3)[GalNAc(b1-4)]Gal(b1-4)GlcNAc(b1-3)GalNAc
Outline: as §1

[20] = target: Neu5Ac(a2-3)[Neu5Ac(a2-6)]GalNAc
Outline: as §1

Neu5Ac(a2-6)Gal = target: Neu5Ac(a2-6)Gal
Outline: as §1

[21] = target: Neu5Ac(a2-6)Gal(b1-3)GlcNAc(b1-3)[Gal(b1-4)GlcNAc(b1-6)]Gal(b1-4)Glc
Outline: as §1

Neu5Ac(a2-6)Gal(b1-4)Glc = target: Neu5Ac(a2-6)Gal(b1-4)Glc
Outline: as §1

[22] = target: Neu5Ac(a2-6)Gal(b1-4)GlcNAc
Outline: as §1

[23] = target: Neu5Ac(a2-6)Gal(b1-4)GlcNAc(b1-2)Man
Outline: as §1

[24] = target: Neu5Ac(a2-6)Gal(b1-4)GlcNAc(b1-2)Man(a1-3)Man(b1-4)GlcNAc(b1-4)GlcNAc
Outline: as §1

[25] = target: Neu5Ac(a2-6)Gal(b1-4)GlcNAc(b1-2)Man(a1-3)[Gal(b1-4)GlcNAc(b1-2)Man(a1-6)]Man(b1-4)GlcNAc(b1-4)GlcNAc
Outline: as §1

[26] = target: Neu5Ac(a2-6)Gal(b1-4)GlcNAc(b1-2)Man(a1-3)[GlcNAc(b1-2)Man(a1-6)]Man(b1-4)GlcNAc(b1-4)GlcNAc
Outline: as §1

[27] = target: Neu5Ac(a2-6)Gal(b1-4)GlcNAc(b1-2)Man(a1-3)[GlcNAc(b1-4)][Neu5Ac(a2-6)Gal(b1-4)GlcNAc(b1-2)Man(a1-6)]Man(b1-4)GlcNAc(b1-4)GlcNAc
Outline: as §1

[28] = target: Neu5Ac(a2-6)Gal(b1-4)GlcNAc(b1-2)Man(a1-3)[Man(a1-6)]Man(b1-4)GlcNAc(b1-4)GlcNAc
Outline: as §1

[29] = target: Neu5Ac(a2-6)Gal(b1-4)GlcNAc(b1-2)Man(a1-3)[Neu5Ac(a2-3)Gal(b1-4)GlcNAc(b1-2)Man(a1-6)]Man(b1-4)GlcNAc(b1-4)GlcNAc
Outline: as §1

[30] = target: Neu5Ac(a2-6)Gal(b1-4)GlcNAc(b1-2)Man(a1-3)[Neu5Ac(a2-6)Gal(b1-4)GlcNAc(b1-2)Man(a1-6)]Man(b1-4)GlcNAc(b1-4)GlcNAc
Outline: as §1

[31] = target: Neu5Ac(a2-6)Gal(b1-4)GlcNAc(b1-2)Man(a1-3)[Neu5Ac(a2-6)Gal(b1-4)GlcNAc(b1-2)Man(a1-6)]Man(b1-4)GlcNAc(b1-4)[Fuc(a1-6)]GlcNAc
Outline: as §1

[32] = target: Neu5Ac(a2-6)Gal(b1-4)GlcNAc(b1-2)Man(a1-6)Man(b1-4)GlcNAc(b1-4)GlcNAc
Outline: as §1

[33] = target: Neu5Ac(a2-6)Gal(b1-4)GlcNAc(b1-2)Man(a1-6)[Gal(b1-4)GlcNAc(b1-2)Man(a1-3)]Man(b1-4)GlcNAc(b1-4)GlcNAc
Outline: as §1

[34] = target: Neu5Ac(a2-6)Gal(b1-4)GlcNAc(b1-2)Man(a1-6)[GlcNAc(b1-2)Man(a1-3)]Man(b1-4)GlcNAc(b1-4)GlcNAc
Outline: as §1

[35] = target: Neu5Ac(a2-6)Gal(b1-4)GlcNAc(b1-2)Man(a1-6)[Man(a1-3)]Man(b1-4)GlcNAc(b1-4)GlcNAc
Outline: as §1

[36] = target: Neu5Ac(a2-6)Gal(b1-4)GlcNAc(b1-2)[Neu5Ac(a2-6)Gal(b1-4)GlcNAc(b1-4)]Man(a1-3)[GlcNAc(b1-4)][Neu5Ac(a2-6)Gal(b1-4)GlcNAc(b1-2)[Neu5Ac(a2-6)Gal(b1-4)GlcNAc(b1-6)]Man(a1-6)]Man(b1-4)GlcNAc(b1-4)GlcNAc
Outline: as §1

[37] = target: Neu5Ac(a2-6)Gal(b1-4)GlcNAc(b1-2)[Neu5Ac(a2-6)Gal(b1-4)GlcNAc(b1-4)]Man(a1-3)[GlcNAc(b1-4)][Neu5Ac(a2-6)Gal(b1-4)GlcNAc(b1-4)Man(a1-6)]Man(b1-4)GlcNAc(b1-4)GlcNAc
Outline: as §1

[38] = target: Neu5Ac(a2-6)Gal(b1-4)GlcNAc(b1-2)[Neu5Ac(a2-6)Gal(b1-4)GlcNAc(b1-6)]Man(a1-6)[Neu5Ac(a2-6)Gal(b1-4)GlcNAc(b1-2)Man(a1-3)][GlcNAc(b1-4)]Man(b1-4)GlcNAc(b1-4)GlcNAc
Outline: as §1

[39] = target: Neu5Ac(a2-6)Gal(b1-4)GlcNAc(b1-3)Gal(b1-3)GlcNAc
Outline: as §1

[40] = target: Neu5Ac(a2-6)Gal(b1-4)GlcNAc(b1-3)Gal(b1-4)GlcNAc
Outline: as §1

[41] = target: Neu5Ac(a2-6)Gal(b1-4)GlcNAc(b1-3)Gal(b1-4)GlcNAc(b1-2)Man(a1-3)[Neu5Ac(a2-6)Gal(b1-4)GlcNAc(b1-3)Gal(b1-4)GlcNAc(b1-2)Man(a1-6)]GalNAc
Outline: as §1

[42] = target: Neu5Ac(a2-6)Gal(b1-4)GlcNAc(b1-3)Gal(b1-4)GlcNAc(b1-3)Gal(b1-4)GlcNAc
Outline: as §1

[43] = target: Neu5Ac(a2-6)Gal(b1-4)GlcNAc(b1-3)Gal(b1-4)GlcNAc(b1-3)Gal(b1-4)GlcNAc(b1-2)Man(a1-3)[Neu5Ac(a2-6)Gal(b1-4)GlcNAc(b1-3)Gal(b1-4)GlcNAc(b1-3)Gal(b1-4)GlcNAc(b1-2)Man(a1-6)]GalNAc
Outline: as §1

B1: LF82 (Escherichia coli) (protein)
chain: ADWGPCRTASGDPFIFVTSFTKNIQNPTDNVTGQTYPDFYQWALGDKYSGVCECPSPNPTEARPTLYKTESTLAAGHNSTYFKITNNLEVSTRVYIANVGNVQVPFINKSNSQPGRECDQPTFGWTTGSKGQLSLYIAKPFVGEQNIPQTIIVSVFGTKKENVYSSVPISQVLLSGKVTVTQGCELAAGTSLDIDFGEYQAHDFKGRTGQPPQNVQKIQKELTFNCTNISDGVHIYLSLEGTPNAAYPSAISLGNADVGAVIEDGKGNILKPNDSNSLLEMNPGSLYEYVKRKVTTTITAYPVSTTGKLPAAGDYSGVATMHVELDGGGGGGGGGGATTDLGAKGTLKFSLKISQGHHHHHH
glycan array binding signal (z-score) [1]: -0.235 | glycan array binding signal (z-score) [2]: -0.627 | glycan array binding signal (z-score) [3]: -0.112 | glycan array binding signal (z-score) [4]: -0.062 | glycan array binding signal (z-score) [5]: 0.053 | glycan array binding signal (z-score) [6]: 0.94 | glycan array binding signal (z-score) [7]: -0.536 | glycan array binding signal (z-score) [8]: 0.281 | glycan array binding signal (z-score) [9]: 0.12 | glycan array binding signal (z-score) [10]: 0.56 | glycan array binding signal (z-score) [11]: 0.33 | glycan array binding signal (z-score) [12]: -1.44 | glycan array binding signal (z-score) [13]: -0.095 | glycan array binding signal (z-score) [14]: -0.781 | glycan array binding signal (z-score) [15]: -1.07 | glycan array binding signal (z-score) (Neu5Ac(a2-3)GalNAc): -0.906 | glycan array binding signal (z-score) [16]: -1.36 | glycan array binding signal (z-score) [17]: -0.486 | glycan array binding signal (z-score) [18]: 0.414 | glycan array binding signal (z-score) [19]: 0.267 | glycan array binding signal (z-score) [20]: 0.367 | glycan array binding signal (z-score) (Neu5Ac(a2-6)Gal): -0.439 | glycan array binding signal (z-score) [21]: 2.17 | glycan array binding signal (z-score) (Neu5Ac(a2-6)Gal(b1-4)Glc): -0.089 | glycan array binding signal (z-score) [22]: -0.085 | glycan array binding signal (z-score) [23]: -0.733 | glycan array binding signal (z-score) [24]: 0.186 | glycan array binding signal (z-score) [25]: 2.29 | glycan array binding signal (z-score) [26]: 0.59 | glycan array binding signal (z-score) [27]: 0.413 | glycan array binding signal (z-score) [28]: 0.519 | glycan array binding signal (z-score) [29]: -0.052 | glycan array binding signal (z-score) [30]: -0.056 | glycan array binding signal (z-score) [31]: -0.085 | glycan array binding signal (z-score) [32]: 0.902 | glycan array binding signal (z-score) [33]: 0.283 | glycan array binding signal (z-score) [34]: -0.805 | glycan array binding signal (z-score) [35]: 0.813 | glycan array binding signal (z-score) [36]: -0.903 | glycan array binding signal (z-score) [37]: -0.76 | glycan array binding signal (z-score) [38]: -0.002 | glycan array binding signal (z-score) [39]: -0.797 | glycan array binding signal (z-score) [40]: -0.824 | glycan array binding signal (z-score) [41]: 0.015 | glycan array binding signal (z-score) [42]: 0.668 | glycan array binding signal (z-score) [43]: 0.574

— the supplement of paper PMC8728848
